Experimental data taken from article PMC8508692.
These are yes or no findings as the source states them, for the method shown. Binding seen in cells or lysates may run through a third protein. Some results given as binding are weak or reduced against the parent protein; the word gives no strength.

Sequences of proteins named here, by UniProt entry; tags and fusion partners are left off. Residues count along the entry.
UniProt Q9EQD0, residues 27-585: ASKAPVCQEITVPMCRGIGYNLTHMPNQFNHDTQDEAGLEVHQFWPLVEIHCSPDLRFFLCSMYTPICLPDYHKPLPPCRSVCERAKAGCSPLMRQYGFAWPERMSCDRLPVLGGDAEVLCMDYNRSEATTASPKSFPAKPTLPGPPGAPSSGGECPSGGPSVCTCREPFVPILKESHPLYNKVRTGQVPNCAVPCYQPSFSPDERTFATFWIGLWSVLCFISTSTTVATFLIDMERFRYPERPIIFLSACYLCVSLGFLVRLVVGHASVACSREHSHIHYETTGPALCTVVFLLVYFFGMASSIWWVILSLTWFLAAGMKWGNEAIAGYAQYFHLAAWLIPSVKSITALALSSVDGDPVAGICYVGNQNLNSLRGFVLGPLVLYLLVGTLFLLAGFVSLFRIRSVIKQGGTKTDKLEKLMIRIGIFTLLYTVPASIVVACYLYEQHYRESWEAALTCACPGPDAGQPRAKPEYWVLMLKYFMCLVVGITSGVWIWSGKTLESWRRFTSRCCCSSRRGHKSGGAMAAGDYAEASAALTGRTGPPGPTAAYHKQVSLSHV

Molecular target: frizzled 5 (FZD5) (mouse (endogenous in mouse COBs)) (UniProt Q9EQD0)
Test: co-IP; wild-type mouse COBs lysed (50 mM Tris-HCl pH 7.4, 150 mM NaCl, 1% Triton X-100, 1 mM EDTA, 1 mM EGTA, 50 mM NaF, 1 mM Na3VO4, 1 mM PMSF, protease inhibitors); immunoprecipitated with IgG control or anti-FZD5 antibody and protein G-conjugated agarose; immunoblotted; endogenous proteins

B1: ubiquitin-specific protease 8 (USP8) (enzyme, UniProt Q80U87 1-1080)
chain: MPAVASVPKELYLSSSLKDLNKKTEVKPEKTSTKNYIHSAQKIFKTAEECRLDRDEERAYVLYMKYVAVYNLIKKRPDFKQQQDYYLSILGPANIKKAIEEAERLSESLKLRYEEAEVRKQLEEKDRREEEQLQQQKRQEMGREDSGAAAKRSVENLLDSKTKTQRINGEKSEGAAAAERGAITAKELYTMMMDKNTSLIIMDARKIQDYQHSCILDSLSVPEEAISPGVTASWIEANLSDDSKDTWKKRGSVDYVVLLDWFSSAKDLLLGTTLRSLKDALFKWESKTVLRHEPLVLEGGYENWLLCYPQFTTNAKVTPPPRSRAEEVSVSLDFTYPSLEEPVPSKLPTQMPPPPIETNEKALLVTDQDEKLRLSTQPALAGPGAAPRAEASPIIQPAPATKSVPQVDRTKKPSVKLPEDHRIKSENTDQSGRVLSDRSTKPVFPSPTTMLTDEEKARIHQETALLMEKNKQEKELWDKQQKEQKEKLRREEQERKAGKTQDADERDSTENQHKAKDGQEKKDSKQTKTEDRELSADGAQEATGTQRQSKSEHEASDAKVPVEGKRCPTSEAQKRPADVSPASVSGELNAGKAQREPLTRARSEEMGRIVPGLPLGWAKFLDPITGTFRYYHSPTNTVHMYPPEMAPSSAPPSTPPTHKVKPQVPAERDREPSKLKRSYSSPDITQALQEEEKRRPAVTPMVNRENKPPCYPKAEISRLSASQIRNLNPVFGGSGPALTGLRNLGNTCYMNSILQCLCNAPHLADYFNRNCYQDDINRSNLLGHKGEVAEEFGIIMKALWTGQYRYISPKDFKVTIGKINDQFAGSSQQDSQELLLFLMDGLHEDLNKADNRKRHKEENNEHLDDLQAAEHAWQKHKQLNESIIVALFQGQFKSTVQCLTCRRRSRTFEAFMYLSLPLASTSKCTLQDCLRLFSKEEKLTDNNRFYCSHCRARRDSLKKIEIWKLPPVLLVHLKRFSYDGRWKQKLQTSVDFPLENLDLSQYVIGPKNSLKKYNLFSVSNHYGGLDGGHYTAYCKNAARQRWFKFDDHEVSDISVSSVRSSAAYILFYTSLGPRITDVAT
B1 was tested, and the binding was “binds”.
